Results are given in words; binding and its absence hold for the method and conditions named. In cells and extracts the contact can be indirect. Some entries that bind do so weakly or less than the wild type.
Assays:
[1] = target: Dlx3 (UniProt Q64205); assay: co-IP; MD10-F2 cells co-transfected with pcDNA-Dlx3 and pcDNA-Osx-Flag for 72 h; RIPA lysate; IP with anti-Osx or anti-Dlx3 antibody (negative control IgG) and protein A/G plus agarose; washes with 10 mM Tris-HCl pH 8.0, 150 mM NaCl, 10% glycerol, 1% NP-40, 2 mM EDTA; Western blot
[2] = target: Osx (UniProt Q8VI67); assay: as above

By UniProt entry, the sequences of proteins in these tests, tags left out.
UniProt Q64205: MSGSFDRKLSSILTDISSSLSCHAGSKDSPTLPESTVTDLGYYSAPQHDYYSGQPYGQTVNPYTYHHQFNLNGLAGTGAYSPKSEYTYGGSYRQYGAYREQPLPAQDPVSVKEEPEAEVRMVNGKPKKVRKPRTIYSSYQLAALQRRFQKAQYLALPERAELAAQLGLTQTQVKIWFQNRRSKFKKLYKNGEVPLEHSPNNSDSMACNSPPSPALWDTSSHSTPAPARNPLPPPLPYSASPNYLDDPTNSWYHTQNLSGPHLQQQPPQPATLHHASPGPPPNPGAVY
UniProt Q8VI67: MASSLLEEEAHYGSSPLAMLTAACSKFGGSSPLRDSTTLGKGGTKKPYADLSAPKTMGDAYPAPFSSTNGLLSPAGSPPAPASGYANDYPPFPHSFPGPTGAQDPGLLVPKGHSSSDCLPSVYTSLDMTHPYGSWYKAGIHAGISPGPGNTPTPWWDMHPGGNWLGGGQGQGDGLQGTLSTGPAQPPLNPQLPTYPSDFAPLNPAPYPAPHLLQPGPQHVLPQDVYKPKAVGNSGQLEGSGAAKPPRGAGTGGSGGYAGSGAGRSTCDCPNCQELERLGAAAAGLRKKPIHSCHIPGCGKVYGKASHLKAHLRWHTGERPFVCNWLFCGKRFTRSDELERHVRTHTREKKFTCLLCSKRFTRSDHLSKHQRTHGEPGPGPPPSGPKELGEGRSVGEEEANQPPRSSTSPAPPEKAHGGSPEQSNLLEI

| binding [1] | binding [2] | Substance |
| --- | --- | --- |
| binds | – | Osx (from UniProt Q8VI67 1-428) |
| – | binds | Dlx3 (from UniProt Q64205 1-287) |

From publication PMC5589848, “BMP-2 induced Dspp transcription is mediated by Dlx3/Osx signaling pathway in odontoblasts”
